Some of these results come from one statement about several compounds together.
Test system: P. aeruginosa strain PAO1
Assay: MIC in Mueller-Hinton broth supplemented with 50% human plasma or human serum
Assay type: cell-based, Pseudomonas aeruginosa
Settings: Mueller-Hinton broth with either 50% human plasma or human serum

Protegrin 1
MIC values in Table 6: 1 to 4 µg/mL
